Data source: PubChem BioAssay AID1259405 (NCATS, 2018)

Assay: 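Silenced genes that increase secreted GFP made by CHO cells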 (primary screen)
Cells: Chinese hamster CHO-K1 ovary cells with stable secreted eGFP expression
Knock-down reagent: single siRNA against mouse genes, 0.8 pmol siRNA per well (2 µl of 400 nM stock)
Timing: 3 days
Measured: 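Percent of the per-plate non-targeting control median for intracellular GFP per well by laser scanning cytometry and for cell viability by ATP luminescence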
Reading the numbers: GFP, % of control: higher = more GFP per well, higher productivity; viability (ATP), % of control: higher = more viable cells (more ATP)
Rule for the call: 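Called active when intracellular GFP, relative to negative control, is at or above 120%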
In all, the deposit lists about 50,000 reagents; this is a part drawn at random. Of all reagents, about 4,000 (8%) are marked active. 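Mouse siRNA library applied to hamster cells; one well for each siRNA.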 Reagents against one gene are numbered here. No sequences are given here.

| GFP, % of control | viability (ATP), % of control | Call | target gene | siRNA no. |
| --- | --- | --- | --- | --- |
| 52.8 | 50.3 | inactive | Ca7 (GeneID 12354) | 1 |
| 44.8 | 60.9 | inactive | Ca7 (GeneID 12354) | 2 |
| 54.9 | 79.7 | inactive | Ca7 (GeneID 12354) | 3 |
| 52.1 | 62.9 | inactive | Tob2 (GeneID 57259) | 1 |
| 94.1 | 104 | inactive | Tob2 (GeneID 57259) | 2 |
| 126 | 136 | active | Tob2 (GeneID 57259) | 3 |
| 90.9 | 115 | inactive | Klrg1 (GeneID 50928) | 1 |
| 105 | 84.1 | inactive | Klrg1 (GeneID 50928) | 2 |
| 77.8 | 34.9 | inactive | 1700030J22Rik (GeneID 69528) | 1 |
| 49.8 | 102 | inactive | 1700030J22Rik (GeneID 69528) | 2 |
| 78.7 | 94.8 | inactive | 1700030J22Rik (GeneID 69528) | 3 |
| 91.4 | 72 | inactive | Tm9sf2 (GeneID 68059) | 1 |
| 83.2 | 74.2 | inactive | Tm9sf2 (GeneID 68059) | 2 |
| 94.1 | 80.6 | inactive | Tm9sf2 (GeneID 68059) | 3 |
| 79.6 | 57.5 | inactive | Ace (GeneID 11421) | 1 |
| 55.7 | 42.3 | inactive | Ace (GeneID 11421) | 2 |
| 94.2 | 59.3 | inactive | Ace (GeneID 11421) | 3 |
| 62.5 | 62.6 | inactive | Slc12a6 (GeneID 107723) | 1 |
| 126 | 72.1 | active | Slc12a6 (GeneID 107723) | 2 |
| 96.7 | 74.5 | inactive | Slc12a6 (GeneID 107723) | 3 |
| 112 | 110 | inactive | Apcs (GeneID 20219) | 1 |
| 89.1 | 62 | inactive | Apcs (GeneID 20219) | 2 |
| 87.5 | 105 | inactive | Lsm2 (GeneID 27756) | 1 |
| 110 | 101 | inactive | Lsm2 (GeneID 27756) | 2 |
| 82.3 | 75.6 | inactive | Lsm2 (GeneID 27756) | 3 |
| 122 | 68.9 | active | Sumo2 (GeneID 170930) | 1 |
| 96.9 | 107 | inactive | Sumo2 (GeneID 170930) | 2 |
| 121 | 97.3 | active | Sumo2 (GeneID 170930) | 3 |
| 140 | 123 | active | Dele1 (GeneID 66839) | 1 |
| 56.8 | 60.7 | inactive | Dele1 (GeneID 66839) | 2 |
| 104 | 57.1 | inactive | Dele1 (GeneID 66839) | 3 |
| 91.4 | 86 | inactive | Ppib (GeneID 19035) | 1 |
| 73.8 | 71.4 | inactive | Ppib (GeneID 19035) | 2 |
| 19.4 | 28.4 | inactive | Ppib (GeneID 19035) | 3 |

As entered above:
Under “Call”, Ace (GeneID 11421) #1 reads inactive
Ppib (GeneID 19035) #3, Call: inactive
